Assay results taken from patent publication US20190240316A1.

Columns and labels:
[1] = molecular target: post-fusion F protein from RSV strain 18537 B (human respiratory syncytial virus subgroup B strain 18537); assay: negative-stain electron microscopy of the complex
[2] = molecular target: post-fusion F protein from RSV strain 18537 B (human respiratory syncytial virus subgroup B strain 18537); assay: negative-stain electron microscopy

B1: 14N4 fragment antigen-binding region (14N4-Fab) (Fab, V domains shown)
VH: QVQLVESGGGLIQPGGSLRLSCAVSGFTVSSKYMTWVRQAPGKGLEWVSVIYGGGSTYYADSVVGRFTISRDNSKNTLYLQMNSLRAEDTAVYYCASRLGVRATTGDLDYWGQGTLVTVSS
VL: QIVMTQSPSTLSASVGDRVTITCRASQSISSWLAWYQQKPGKAPKLLIYDASSLESGVPSRFSGSGSGTEFTLTISSLQPDDFATYYCQQYNTYSWWTFGQGTKVEIK
[1]
  binding: binds
[2]
  binding: binds

No constants are given. Whether binding was seen depends on the method and setting. Binding calls can cover weak binding; strength is not graded here.
